These are yes or no findings as the source states them, for the method shown. Binding seen in cells or lysates may run through a third protein. Here binding means that the protein was enriched with, or labelled near, the bait; the list need not be complete.
Target: SMAD Family Member 3 (Smad3), endogenous (mouse (endogenous in EL4 and mouse CD4+ T cells)) (UniProt Q8BUN5)
Experiment: affinity purification with mass spectrometry; free Dleu2-17aa in excess as competitor of Biotin-Dleu2-17aa for Smad3 of the cell lysate; streptavidin-agarose, LC-MS/MS; only the binder purified

Protein sequences, listed by entry. Tags and fused reporters are not part of them.
UniProt Q8BUN5: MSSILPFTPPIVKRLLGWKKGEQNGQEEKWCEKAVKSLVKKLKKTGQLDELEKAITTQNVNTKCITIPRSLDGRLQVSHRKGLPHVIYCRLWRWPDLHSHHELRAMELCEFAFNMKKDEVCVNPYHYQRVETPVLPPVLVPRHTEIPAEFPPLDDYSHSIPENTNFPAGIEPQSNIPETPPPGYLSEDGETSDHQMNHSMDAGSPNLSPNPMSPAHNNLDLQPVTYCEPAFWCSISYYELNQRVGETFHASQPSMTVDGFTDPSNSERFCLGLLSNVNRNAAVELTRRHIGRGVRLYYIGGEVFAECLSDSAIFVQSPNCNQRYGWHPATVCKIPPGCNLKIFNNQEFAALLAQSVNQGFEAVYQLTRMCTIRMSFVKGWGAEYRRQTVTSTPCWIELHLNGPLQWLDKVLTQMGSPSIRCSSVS

MLGRRARRRGRGRRRPA [Dleu2-17aa, free (unlabelled)]
binding: binds
